In patent US20160186196A1 (priority 2009, published 2016):

Tested on: C. reinhardtii UTEX 2244 and transformants
Experiment: Rose Bengal photooxidative stress kill curves in liquid culture
Format: cell-based, Chlamydomonas reinhardtii
Settings: 2 μM, after exposure to light
Protocol: Exposure of C. reinhardtii to Rose Bengal was performed as follows. In order to induce apoptosis in C. reinhardtii by the mechanism of photooxidative stress, algal cells were grown on solid medium containing various concentrations of the photosensitizing dye Rose Bengal as described in Fischer et al. (Plant Sci, 168:747-759 (2005)). Duplicate plates with RB levels as high as up to 2.0 μM were initially spread with 1×10^3 cells and resulting colonies were counted after a: period of one week. UTEX 2244 was used as a control. Cell viability is reported as a percentage of surviving cells. Additionally, kill curves were conducted in liquid culture using 100-ml stirrer flasks under the same cultivation conditions mentioned previously, with the exception of aeration. Each culture was seeded with an inoculum of exponentially growing cells (1×10^6 cells ml^−1) and the cell density was measured with a Zeiss Axiovert™ 100 inverted light microscope using a hemocytometer over a one-week period. In the experimental flasks, 100x RB dissolved in isopropanol stock solution was added three days after inoculation to cultures of approximately 0.2×10^6 cells ml^−1 in order achieve a final concentration of 2.0 μM; control flasks were unaltered.

## O=C([O-])c1c(Cl)c(Cl)c(Cl)c(Cl)c1-c1c2cc(I)c(=O)c(I)c-2oc2c(I)c([O-])c(I)cc12.[Na+].[Na+] [Rose Bengal]
  duration of activity in cultures: lost most activity by the third day
